Assay results published in the supplement of paper PMC7661543.
Differences between knockout arms are mostly noise.

Test system: HCC-38
Experiment: relative cell number vs DMSO control (72 h) (% of DMSO); higher = less growth inhibition (more cells)
Experimental: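 QMAP-Seq: a pool of 5 breast cancer cell lines (ZR-75-1, SKBR3, HCC-38, MDA-MB-231, BT-20), each carrying 12 doxycycline-inducible Cas9 sgRNA perturbations (11 knockouts plus non-targeting sgNT), was treated with compounds for 72 h at four 10-fold doses (10 nM-10 uM or 1 nM-1 uM range). Barcodes were amplified and sequenced, and cell number was interpolated from 293T spike-in standard curves. The result is expressed as % of the median of DMSO wells. Two biological replicates.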

COc1cc(C(=O)N2CCC(N3CCN(C)CC3)CC2)ccc1Nc1ncc2c(n1)N(C)c1ccccc1C(=O)N2C [LRRK2IN1]
Settings	relative cell number
sgRNA knockout: sgATF3, 10 nM	119
sgRNA knockout: sgATF3, 100 nM	80.65
sgRNA knockout: sgATF3, 1000 nM	62.07
sgRNA knockout: sgATF3, 10000 nM	38.2
sgRNA knockout: sgATF4, 10 nM	102.4
sgRNA knockout: sgATF4, 100 nM	81.2
sgRNA knockout: sgATF4, 1000 nM	67.6
sgRNA knockout: sgATF4, 10000 nM	42.8
sgRNA knockout: sgATF6, 10 nM	105
sgRNA knockout: sgATF6, 100 nM	81.8
sgRNA knockout: sgATF6, 1000 nM	77.2
sgRNA knockout: sgATF6, 10000 nM	37
sgRNA knockout: sgATG7, 10 nM	105
sgRNA knockout: sgATG7, 100 nM	85.6
sgRNA knockout: sgATG7, 1000 nM	64.1
sgRNA knockout: sgATG7, 10000 nM	39.7
sgRNA knockout: sgERN1, 10 nM	114.8
sgRNA knockout: sgERN1, 100 nM	94.3
sgRNA knockout: sgERN1, 1000 nM	58.7
sgRNA knockout: sgERN1, 10000 nM	38.3
sgRNA knockout: sgHSF1, 10 nM	114
sgRNA knockout: sgHSF1, 100 nM	93.7
sgRNA knockout: sgHSF1, 1000 nM	74.7
sgRNA knockout: sgHSF1, 10000 nM	39.3
sgRNA knockout: sgHSF2, 10 nM	125
sgRNA knockout: sgHSF2, 100 nM	92.43
sgRNA knockout: sgHSF2, 1000 nM	66.6
sgRNA knockout: sgHSF2, 10000 nM	37.19
sgRNA knockout: sgKEAP1, 10 nM	123
sgRNA knockout: sgKEAP1, 100 nM	114
sgRNA knockout: sgKEAP1, 1000 nM	66.5
sgRNA knockout: sgKEAP1, 10000 nM	30.8
sgRNA knockout: sgNFE2L2, 10 nM	108
sgRNA knockout: sgNFE2L2, 100 nM	83.5
sgRNA knockout: sgNFE2L2, 1000 nM	60.3
sgRNA knockout: sgNFE2L2, 10000 nM	45.86
sgRNA knockout: sgSLC35F2, 10 nM	112
sgRNA knockout: sgSLC35F2, 100 nM	83.8
sgRNA knockout: sgSLC35F2, 1000 nM	58.69
sgRNA knockout: sgSLC35F2, 10000 nM	42.6
sgRNA knockout: sgXBP1, 10 nM	109
sgRNA knockout: sgXBP1, 100 nM	80.86
sgRNA knockout: sgXBP1, 1000 nM	63.4
sgRNA knockout: sgXBP1, 10000 nM	40.4

N#Cc1ccc(C(c2ccc(C#N)cc2)n2cncn2)cc1 [Letrozole]
Settings	relative cell number
sgRNA knockout: sgATF3, 1 nM	99.5
sgRNA knockout: sgATF3, 10 nM	94.3
sgRNA knockout: sgATF3, 100 nM	106
sgRNA knockout: sgATF3, 1000 nM	97
sgRNA knockout: sgATF4, 1 nM	97.6
sgRNA knockout: sgATF4, 10 nM	118
sgRNA knockout: sgATF4, 100 nM	114
sgRNA knockout: sgATF4, 1000 nM	86.3
sgRNA knockout: sgATF6, 1 nM	91
sgRNA knockout: sgATF6, 10 nM	90.9
sgRNA knockout: sgATF6, 100 nM	134
sgRNA knockout: sgATF6, 1000 nM	107
sgRNA knockout: sgATG7, 1 nM	92.9
sgRNA knockout: sgATG7, 10 nM	103
sgRNA knockout: sgATG7, 100 nM	109
sgRNA knockout: sgATG7, 1000 nM	97.1
sgRNA knockout: sgERN1, 1 nM	101
sgRNA knockout: sgERN1, 10 nM	100
sgRNA knockout: sgERN1, 100 nM	107
sgRNA knockout: sgERN1, 1000 nM	99.3
sgRNA knockout: sgHSF1, 1 nM	108
sgRNA knockout: sgHSF1, 10 nM	89.3
sgRNA knockout: sgHSF1, 100 nM	106
sgRNA knockout: sgHSF1, 1000 nM	108
sgRNA knockout: sgHSF2, 1 nM	107
sgRNA knockout: sgHSF2, 10 nM	95.9
sgRNA knockout: sgHSF2, 100 nM	122
sgRNA knockout: sgHSF2, 1000 nM	94.4
sgRNA knockout: sgKEAP1, 1 nM	110
sgRNA knockout: sgKEAP1, 10 nM	95.9
sgRNA knockout: sgKEAP1, 100 nM	95.6
sgRNA knockout: sgKEAP1, 1000 nM	101
sgRNA knockout: sgNFE2L2, 1 nM	90.6
sgRNA knockout: sgNFE2L2, 10 nM	105
sgRNA knockout: sgNFE2L2, 100 nM	118
sgRNA knockout: sgNFE2L2, 1000 nM	88.7
sgRNA knockout: sgSLC35F2, 1 nM	97.1
sgRNA knockout: sgSLC35F2, 10 nM	113
sgRNA knockout: sgSLC35F2, 100 nM	115
sgRNA knockout: sgSLC35F2, 1000 nM	102
sgRNA knockout: sgXBP1, 1 nM	97.6
sgRNA knockout: sgXBP1, 10 nM	101.3
sgRNA knockout: sgXBP1, 100 nM	119
sgRNA knockout: sgXBP1, 1000 nM	89.6

Cc1ccc(F)c(NC(=O)Nc2ccc(-c3cccc4[nH]nc(N)c34)cc2)c1 [Linifanib]
Settings	relative cell number
sgRNA knockout: sgATF3, 10 nM	93.7
sgRNA knockout: sgATF3, 100 nM	86.3
sgRNA knockout: sgATF3, 1000 nM	112
sgRNA knockout: sgATF3, 10000 nM	57.9
sgRNA knockout: sgATF4, 10 nM	101
sgRNA knockout: sgATF4, 100 nM	83.9
sgRNA knockout: sgATF4, 1000 nM	121
sgRNA knockout: sgATF4, 10000 nM	46.5
sgRNA knockout: sgATF6, 10 nM	91.2
sgRNA knockout: sgATF6, 100 nM	110
sgRNA knockout: sgATF6, 1000 nM	116
sgRNA knockout: sgATF6, 10000 nM	66
sgRNA knockout: sgATG7, 10 nM	101
sgRNA knockout: sgATG7, 100 nM	83.8
sgRNA knockout: sgATG7, 1000 nM	117
sgRNA knockout: sgATG7, 10000 nM	56.5
sgRNA knockout: sgERN1, 10 nM	95.8
sgRNA knockout: sgERN1, 100 nM	89.7
sgRNA knockout: sgERN1, 1000 nM	118
sgRNA knockout: sgERN1, 10000 nM	54.6
sgRNA knockout: sgHSF1, 10 nM	76.5
sgRNA knockout: sgHSF1, 100 nM	116
sgRNA knockout: sgHSF1, 1000 nM	125
sgRNA knockout: sgHSF1, 10000 nM	67.9
sgRNA knockout: sgHSF2, 10 nM	96.6
sgRNA knockout: sgHSF2, 100 nM	93.3
sgRNA knockout: sgHSF2, 1000 nM	118
sgRNA knockout: sgHSF2, 10000 nM	56.2
sgRNA knockout: sgKEAP1, 10 nM	102
sgRNA knockout: sgKEAP1, 100 nM	122
sgRNA knockout: sgKEAP1, 1000 nM	124
sgRNA knockout: sgKEAP1, 10000 nM	66.9
sgRNA knockout: sgNFE2L2, 10 nM	91.2
sgRNA knockout: sgNFE2L2, 100 nM	73.5
sgRNA knockout: sgNFE2L2, 1000 nM	118
sgRNA knockout: sgNFE2L2, 10000 nM	51.1
sgRNA knockout: sgSLC35F2, 10 nM	92.9
sgRNA knockout: sgSLC35F2, 100 nM	88.9
sgRNA knockout: sgSLC35F2, 1000 nM	117
sgRNA knockout: sgSLC35F2, 10000 nM	61.5
sgRNA knockout: sgXBP1, 10 nM	97.5
sgRNA knockout: sgXBP1, 100 nM	77.5
sgRNA knockout: sgXBP1, 1000 nM	120
sgRNA knockout: sgXBP1, 10000 nM	60.7
